The data set concerns the target T1, DraLF-PolI (DNA polymerase I Large Fragment) (Deinococcus radiodurans) (UniProt P52027).
T1 sequence (looked up): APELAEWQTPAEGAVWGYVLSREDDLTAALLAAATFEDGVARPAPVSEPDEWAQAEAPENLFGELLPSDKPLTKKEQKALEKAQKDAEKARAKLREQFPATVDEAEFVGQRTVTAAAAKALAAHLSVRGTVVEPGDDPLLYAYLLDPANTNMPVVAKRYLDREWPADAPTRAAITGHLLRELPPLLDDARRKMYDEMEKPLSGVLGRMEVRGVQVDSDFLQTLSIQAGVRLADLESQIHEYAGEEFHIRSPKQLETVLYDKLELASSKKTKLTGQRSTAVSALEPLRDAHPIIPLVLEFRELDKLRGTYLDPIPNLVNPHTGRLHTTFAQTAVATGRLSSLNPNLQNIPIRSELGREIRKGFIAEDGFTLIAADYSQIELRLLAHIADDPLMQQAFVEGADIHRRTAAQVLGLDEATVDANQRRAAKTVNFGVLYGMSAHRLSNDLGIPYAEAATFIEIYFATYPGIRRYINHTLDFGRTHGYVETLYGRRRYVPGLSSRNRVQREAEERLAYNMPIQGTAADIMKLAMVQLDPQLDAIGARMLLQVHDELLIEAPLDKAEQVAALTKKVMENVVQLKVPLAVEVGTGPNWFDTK
In words: EMSA. The following applies: 5 mM MgCl2, 2 mM EDTA, 20 mM Tris/HCl pH 7.5, 3.5 mM beta-mercaptoethanol, 50 mM NaCl, 0.05 uM DNA, 0.5-40 pmol protein in 10 uL, 10 min at room temperature, recombinant protein.

[1] abbreviates: residues 362-956, protein details: C-terminal His6, label: 5'-Cy5 on strand 2.

The exact form of at least one protein or probe is not confirmed. A weaker result is weaker than the reference pair of the same experiment. Protein sequences can lack the tags named with them. At least one verdict was read from the data and is not stated in words by the source.

The text below walks through data of PMC10855757.

With GCTATCGTACATGATATCCTC [21mer-Cy5 ssDNA], where the note is “binding 'visibly altered', residues 362-956, protein details: C-terminal His6, label: 5'-Cy5, single-stranded DNA”, the binding result was “binds more weakly”.

In the case of “GTAGTGACTGGGAAAACATGTACGATAGCGAGGATATCATGTACGATAGC (double strand) [dsDNA (DS: 50mer + 50mer-Cy5)]”, the binding result under setting [1] is listed as “binds”.

In the case of “GTAGTGACTGGGAAAACATGTACGATAGCGAGGATATCATGTACGATAGC / GCTATCGTACATGATATCCTC [primed DNA (PE: 50mer + 21mer-Cy5)]”, the binding result under setting [1] is recorded as “binds”.
